Source: article PMC8795797
These are yes or no findings as the source states them, for the method shown. Binding seen in cells or lysates may run through a third protein. Some entries that bind do so weakly or less than the wild type. Values belong to the molecule of their own block, whether it stands above or below them.

Protein sequences, listed by entry. Tags and fused reporters are not part of them.
UniProt Q99558: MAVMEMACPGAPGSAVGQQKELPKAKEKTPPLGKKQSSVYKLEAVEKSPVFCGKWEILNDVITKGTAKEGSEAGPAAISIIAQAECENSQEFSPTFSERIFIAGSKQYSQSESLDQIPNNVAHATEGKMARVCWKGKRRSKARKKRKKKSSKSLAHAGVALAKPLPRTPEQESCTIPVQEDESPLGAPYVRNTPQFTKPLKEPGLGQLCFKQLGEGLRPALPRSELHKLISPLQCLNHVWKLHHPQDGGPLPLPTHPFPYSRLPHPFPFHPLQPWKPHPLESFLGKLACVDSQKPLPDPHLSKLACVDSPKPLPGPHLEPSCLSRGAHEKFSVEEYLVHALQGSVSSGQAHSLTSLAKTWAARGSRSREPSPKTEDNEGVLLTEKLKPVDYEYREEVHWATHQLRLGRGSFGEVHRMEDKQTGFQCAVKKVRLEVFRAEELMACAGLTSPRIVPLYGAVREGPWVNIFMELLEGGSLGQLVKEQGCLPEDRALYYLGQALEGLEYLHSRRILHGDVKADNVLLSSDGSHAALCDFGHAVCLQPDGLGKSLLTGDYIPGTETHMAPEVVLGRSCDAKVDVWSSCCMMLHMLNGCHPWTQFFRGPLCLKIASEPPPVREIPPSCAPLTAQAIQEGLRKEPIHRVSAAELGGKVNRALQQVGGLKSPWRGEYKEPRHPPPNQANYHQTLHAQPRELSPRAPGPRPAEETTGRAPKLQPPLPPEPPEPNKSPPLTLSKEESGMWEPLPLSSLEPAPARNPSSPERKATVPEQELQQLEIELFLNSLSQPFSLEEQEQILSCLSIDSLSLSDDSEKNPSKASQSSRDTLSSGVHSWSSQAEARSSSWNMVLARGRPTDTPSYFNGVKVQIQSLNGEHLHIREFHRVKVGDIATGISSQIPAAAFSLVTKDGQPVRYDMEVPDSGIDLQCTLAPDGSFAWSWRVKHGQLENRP

Tests used:
Assay in all cases: co-IP; endogenous proteins in NB4 cell extract; antibody pre-conjugated to Protein A/G magnetic beads, incubated with protein overnight at 4 °C; western blot of the precipitate; IgG control
[1] = biological target: NIK (human (endogenous in NB4)) (UniProt Q99558)
[2] = biological target: T1, ZFP91 zinc finger protein (human (endogenous in NB4)) (UniProt Q96JP5)
T1 sequence: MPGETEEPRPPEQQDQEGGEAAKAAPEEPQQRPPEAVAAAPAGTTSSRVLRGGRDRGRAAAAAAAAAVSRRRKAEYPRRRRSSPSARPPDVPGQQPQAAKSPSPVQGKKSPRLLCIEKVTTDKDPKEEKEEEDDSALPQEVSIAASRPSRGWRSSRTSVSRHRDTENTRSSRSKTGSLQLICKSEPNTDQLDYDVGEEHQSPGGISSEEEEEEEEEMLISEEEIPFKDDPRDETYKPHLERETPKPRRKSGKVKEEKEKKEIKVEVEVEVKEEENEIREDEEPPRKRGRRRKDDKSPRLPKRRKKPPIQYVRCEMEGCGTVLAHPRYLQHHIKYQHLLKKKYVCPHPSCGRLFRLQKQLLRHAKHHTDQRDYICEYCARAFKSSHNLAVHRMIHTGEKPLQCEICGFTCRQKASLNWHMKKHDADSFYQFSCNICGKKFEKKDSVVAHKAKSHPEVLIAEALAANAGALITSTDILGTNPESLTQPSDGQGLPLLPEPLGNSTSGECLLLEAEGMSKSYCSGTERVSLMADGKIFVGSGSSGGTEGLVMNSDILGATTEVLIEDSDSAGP

[3] = biological target: T2, receptor-interacting serine/threonine-protein kinase 1 (human (endogenous in NB4)), Q13546; settings: remark: other sources report otherwise
T2 chain: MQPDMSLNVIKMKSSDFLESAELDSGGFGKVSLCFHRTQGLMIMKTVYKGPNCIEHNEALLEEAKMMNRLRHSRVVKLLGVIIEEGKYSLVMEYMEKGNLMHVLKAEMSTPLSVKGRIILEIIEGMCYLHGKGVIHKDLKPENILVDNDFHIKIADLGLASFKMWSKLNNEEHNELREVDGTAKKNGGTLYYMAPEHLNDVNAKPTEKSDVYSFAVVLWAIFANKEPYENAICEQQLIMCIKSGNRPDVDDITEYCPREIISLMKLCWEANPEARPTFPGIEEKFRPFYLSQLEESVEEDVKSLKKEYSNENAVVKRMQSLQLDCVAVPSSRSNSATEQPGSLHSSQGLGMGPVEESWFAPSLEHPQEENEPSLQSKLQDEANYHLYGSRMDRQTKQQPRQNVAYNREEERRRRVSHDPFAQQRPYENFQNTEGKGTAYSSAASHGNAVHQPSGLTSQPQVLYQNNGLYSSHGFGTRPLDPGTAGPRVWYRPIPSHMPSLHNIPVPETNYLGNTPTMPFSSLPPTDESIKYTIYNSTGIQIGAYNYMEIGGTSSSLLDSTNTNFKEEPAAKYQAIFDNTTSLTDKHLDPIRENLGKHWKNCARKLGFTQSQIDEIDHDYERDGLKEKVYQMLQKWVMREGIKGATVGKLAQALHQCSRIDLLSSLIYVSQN

[4] = biological target: receptor-interacting serine/threonine-protein kinase 1 (human (endogenous in NB4)) (UniProt Q13546)

binding [1]: binds | binding [2]: binds
Molecule: receptor-interacting serine/threonine-protein kinase 1 (from UniProt Q13546 1-671)

binding [3]: binds
B1: TRAF2, Q12933 1-501 (protein)
chain: MAAASVTPPGSLELLQPGFSKTLLGTKLEAKYLCSACRNVLRRPFQAQCGHRYCSFCLASILSSGPQNCAACVHEGIYEEGISILESSSAFPDNAARREVESLPAVCPSDGCTWKGTLKEYESCHEGRCPLMLTECPACKGLVRLGEKERHLEHECPERSLSCRHCRAPCCGADVKAHHEVCPKFPLTCDGCGKKKIPREKFQDHVKTCGKCRVPCRFHAIGCLETVEGEKQQEHEVQWLREHLAMLLSSVLEAKPLLGDQSHAGSELLQRCESLEKKTATFENIVCVLNREVERVAMTAEACSRQHRLDQDKIEALSSKVQQLERSIGLKDLAMADLEQKVLEMEASTYDGVFIWKISDFARKRQEAVAGRIPAIFSPAFYTSRYGYKMCLRIYLNGDGTGRGTHLSLFFVVMKGPNDALLRWPFNQKVTLMLLDQNNREHVIDAFRPDVTSSSFQRPVNDMNIASGCPLFCPVSKMEAKNSYVRDDAIFIKAIVDLTGL

binding [4]: binds
B2: ZFP91 zinc finger protein (protein, UniProt Q96JP5 1-570)
chain: MPGETEEPRPPEQQDQEGGEAAKAAPEEPQQRPPEAVAAAPAGTTSSRVLRGGRDRGRAAAAAAAAAVSRRRKAEYPRRRRSSPSARPPDVPGQQPQAAKSPSPVQGKKSPRLLCIEKVTTDKDPKEEKEEEDDSALPQEVSIAASRPSRGWRSSRTSVSRHRDTENTRSSRSKTGSLQLICKSEPNTDQLDYDVGEEHQSPGGISSEEEEEEEEEMLISEEEIPFKDDPRDETYKPHLERETPKPRRKSGKVKEEKEKKEIKVEVEVEVKEEENEIREDEEPPRKRGRRRKDDKSPRLPKRRKKPPIQYVRCEMEGCGTVLAHPRYLQHHIKYQHLLKKKYVCPHPSCGRLFRLQKQLLRHAKHHTDQRDYICEYCARAFKSSHNLAVHRMIHTGEKPLQCEICGFTCRQKASLNWHMKKHDADSFYQFSCNICGKKFEKKDSVVAHKAKSHPEVLIAEALAANAGALITSTDILGTNPESLTQPSDGQGLPLLPEPLGNSTSGECLLLEAEGMSKSYCSGTERVSLMADGKIFVGSGSSGGTEGLVMNSDILGATTEVLIEDSDSAGP
